# The list shows a part of the results. Many values rest on one well or one pass, so single values are uncertain.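 Cells were imaged in 1,536-well plates, and nuclei stained with an antibody against cleaved PARP were counted against all DNA-stained nuclei to give the apoptosis fraction. Screening doses were chosen to leave most cells alive, and resting and induced cleaved-PARP levels differ strongly between cell lines.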
# Test system: G361
# Assay: cleaved PARP positive nuclei fraction relative to DMSO control; melanoma cells; higher = more apoptosis
# Conditions: library dose: low library concentration; 72 h
row,Structure (SMILES),cleaved PARP positive nuclei fraction [%]
1,"Oc1cc(-c2nc(-c3ccccc3)[nH]c2-c2ccncc2)ccc1Cl + c1cc(-c2cnn3cc(-c4ccc(OCCN5CCCCC5)cc4)cnc23)ccn1 [Dorsomorphin] (first compound 0.2 µM, partner dose 0.4 µM)",106
2,"Oc1nc(-c2ccc(C(F)(F)F)cc2)nc2c1CSCC2 + CCCCCCCCCCCC1=C(O)C(=O)C=C(O)C1=O [Embelin] (first compound 2 µM, partner dose 1.2 µM)",134
3,"CN(C)S(=O)(=O)c1ccc2c(c1)/C(=C/c1cc3c([nH]1)CCCC3)C(=O)N2 + CCN(CC)CCCCNc1ncc2cc(-c3cc(OC)cc(OC)c3)c(NC(=O)NC(C)(C)C)nc2n1 [PD173074] (first compound 0.4 µM, partner dose 0.1 µM)",77.8
4,"COc1ccc(-c2ccc3c(N4CCOCC4)nc(N4C[C@@H](C)O[C@@H](C)C4)nc3n2)cc1CO + O=c1cc(-c2cccc3c2Sc2ccccc2S3)oc(N2CCOCC2)c1 [KU55933] (first compound 0.02 µM, partner dose 1 µM)",46.7
5,"NCC(=O)Nc1ccc(-n2nc(C(F)(F)F)cc2-c2ccc3c(ccc4ccccc43)c2)cc1 + Cn1cc(/C=C2\C(=O)Nc3cccnc32)c2ccccc21 [GW441756] (first compound 1 µM, partner dose 0.4 µM)",89.2
6,"COc1ccc(-c2ccc3c(N4CCOCC4)nc(N4C[C@@H](C)O[C@@H](C)C4)nc3n2)cc1CO + CC(C)CCN1c2nc(Nc3cc(F)c(O)c(F)c3)ncc2N(C)C(=O)C1C [BID1870] (first compound 0.02 µM, partner dose 0.2 µM)",200

# From the supplement of paper PMC4604168 (melanoma cell lines)
